Reference: PMC10120120
Substitutions are numbered along the chain they refer to. Results are given in words; binding and its absence hold for the method and conditions named. Binding seen in cells or lysates may run through a third protein. Some results given as binding are weak or reduced against the parent protein; the word gives no strength. Sequences can lack the tags named with a protein. Each block holds one substance with its values, some of them ahead of it.

What was measured:
[1] = target: T1, FLAG-GSDME-HA (wild type gasdermin E, full length) (human) (UniProt O60443); assay: co-IP; HEK293FT cells transfected with both plasmids for 24 h; IP with HA antibody, protein A beads; IP lysis buffer 20 mM Tris-HCl pH 7.5, 150 mM NaCl, 1% Triton; Western blot (Fig. 3D: EGFR and HA antibodies; Fig. 3H: FLAG and HA antibodies)
T1 sequence: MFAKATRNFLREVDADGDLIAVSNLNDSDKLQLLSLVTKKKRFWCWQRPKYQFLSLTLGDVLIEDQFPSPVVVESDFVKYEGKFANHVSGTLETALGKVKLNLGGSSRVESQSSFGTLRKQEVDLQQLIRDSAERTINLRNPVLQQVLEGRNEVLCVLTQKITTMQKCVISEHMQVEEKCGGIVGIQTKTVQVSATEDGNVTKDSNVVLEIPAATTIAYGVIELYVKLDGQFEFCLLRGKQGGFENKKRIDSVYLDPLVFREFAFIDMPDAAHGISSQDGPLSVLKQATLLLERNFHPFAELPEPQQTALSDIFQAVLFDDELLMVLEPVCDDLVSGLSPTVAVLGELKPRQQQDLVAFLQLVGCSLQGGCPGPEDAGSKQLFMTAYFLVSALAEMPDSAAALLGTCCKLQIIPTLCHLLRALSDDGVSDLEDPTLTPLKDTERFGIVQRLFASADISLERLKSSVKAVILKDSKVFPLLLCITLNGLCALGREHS

[2] = target: T2, FLAG-GSDME (D270A)-HA (human) (UniProt O60443); assay: co-IP; H1299 cells transfected with GSDME plasmids for 24 h, with or without 4 uM doxorubicin for 8 h; IP with HA antibody; Western blot with EGFR and GSDME antibodies (Fig. 3F); EGFR endogenous
T2 sequence: T1 sequence with D270A

[3] = target: T1, FLAG-GSDME-HA (wild type gasdermin E, full length) (human); assay: as above
[4] = target: T2, FLAG-GSDME (D270A)-HA (human); assay: co-IP; HEK293FT cells transfected with both plasmids for 24 h; IP with HA antibody, protein A beads; IP lysis buffer 20 mM Tris-HCl pH 7.5, 150 mM NaCl, 1% Triton; Western blot (Fig. 3D: EGFR and HA antibodies; Fig. 3H: FLAG and HA antibodies)
[5] = target: T1, FLAG-GSDME-HA (wild type gasdermin E, full length) (human); assay: co-IP; HEK293FT cells transfected with both plasmids for 24 h; IP with FLAG antibody; Western blot with HA and FLAG antibodies (Fig. 3E)

binding [1]: binds
Substance: EGFR cytoplasmic fragment (CT) (from UniProt P00533 669-1210) (domain or fragment)

binding [2]: binds
binding [3]: binds
Substance: EGFR, endogenous in H1299 cells (from UniProt P00533 25-1210) (receptor)

binding [4]: binds
binding [1]: binds
Substance: FLAG-EGFR (epidermal growth factor receptor) (from UniProt P00533 25-1210)

binding [5]: binds
Substance: HA-EGFR (from UniProt P00533 25-1210) (receptor)
